# Test results taken from PubChem BioAssay AID652054 (National Center for Advancing Translational Sciences (NCATS), 2013).
# By UniProt entry, the sequences of proteins in these tests, tags left out.
# UniProt P35462, whole entry, looked up: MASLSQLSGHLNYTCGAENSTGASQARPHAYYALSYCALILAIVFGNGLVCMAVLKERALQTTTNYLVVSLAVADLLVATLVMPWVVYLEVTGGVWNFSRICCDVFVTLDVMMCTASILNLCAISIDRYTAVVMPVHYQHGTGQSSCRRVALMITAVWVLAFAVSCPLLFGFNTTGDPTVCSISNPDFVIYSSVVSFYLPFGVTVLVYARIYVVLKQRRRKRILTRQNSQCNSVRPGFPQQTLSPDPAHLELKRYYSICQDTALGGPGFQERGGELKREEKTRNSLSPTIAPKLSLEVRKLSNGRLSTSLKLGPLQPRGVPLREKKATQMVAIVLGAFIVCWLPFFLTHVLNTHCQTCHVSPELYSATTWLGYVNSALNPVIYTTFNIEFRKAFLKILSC
# The campaign covered roughly 360,000 compounds. About 9,100 (2.5%) were called active. The shares of active, inactive and inconclusive entries below differ from those in the screen. Rule as the data show it: active = max response below about -50%; inconclusive = no clear call, values can overlap the other calls; inactive = above that.
# Molecular target: D(3) dopamine receptor (Homo sapiens) (UniProt P35462)
# Assay: qHTS of D3 Dopamine Receptor Antagonist: qHTS
# Conditions: D3R cells, DiscoveRx beta-arrestin luminescence, antagonist mode; stronger effect = lower value
# Procedure, shortened: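 Cells plated overnight at 1500 cells/well, then exposed to library compounds with dopamine controls for 90 minutes at 37 degrees C. DiscoveRx reagent added for 30–60 minutes at room temperature; luminescence read, quantitative HTS format.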
# % is scaled to controls: 0 for no effect and ±100 for the full control effect.
row,SMILES,"max response, negative = inhibition"
1,Cc1ccc(F)c([C@H]2C3C=CCC(c4ccccc4)C3C(=O)N2Cc2ccccc2)c1 (stereo partly drawn),inactive: -16.7%
2,CN(C)c1ccc(C(=S)N2CCN(Cc3ccccc3)CC2)cc1,active: -50.3%
3,OCC1(CC2CCCCO2)CCN(C/C=C/c2ccccc2)CC1 (stereo not drawn),active: -67.8%
4,S=c1sc2c(Cl)ncnc2n1-c1ccccc1,active: -61.4%
5,Cc1ccccc1Oc1ncnc2sccc12,inconclusive: -34.5%
6,CCN(CC)Cc1c(O)ccc2c(=O)c(-c3ccc4c(c3)OCCO4)coc12,inconclusive: -40.5%
7,O=C(Cc1ccc(Cl)cc1)NCCS(=O)(=O)N1CCN(c2ccccc2F)CC1,inconclusive: -36.9%
8,N#Cc1nc(COc2ccccc2)oc1N1CCCCC1,inactive: -13.3%
9,CN(C)CC(O)c1ccc(C=Cc2ccc(Cl)cc2)cc1 (stereo not drawn),inconclusive: -36.5%
10,C=C1C(=O)[C@]23C[C@H]1CC[C@H]2[C@]1(C)[C@@H](OC(C)=O)CC[C@@](C)(C(=O)O)[C@H]1C[C@@H]3O,inconclusive: -34%
11,CCOC(=O)CCCn1ccc2cc(S(=O)(=O)N3CCCC3)ccc21,inactive: 11.7%
12,O=[N+]([O-])c1cc([N+](=O)[O-])c(Oc2c(F)ccc(F)c2F)cc1NN1CCCCC1,inconclusive: -33%
13,COc1ccc(-n2c(=O)[nH]c3cc(C(=O)NCCc4ccc(Cl)cc4)ccc3c2=O)cc1OC,inconclusive: -38.4%
14,O=C(NCC(c1cccs1)N1CCOCC1)c1cn(-c2ccccc2)nc1-c1ccccc1 (stereo not drawn),inactive: 0.885%
15,COc1ccc(N=C2NC(=O)/C(=C\C=C\c3ccccc3)S2)cc1,inconclusive: -36.7%
16,CCN(CC)c1ccc(NC(=O)c2ccccn2)cc1S(=O)(=O)Nc1ccccc1OC,inactive: -10.9%
17,O=[N+]([O-])c1ccccc1S(=O)(=O)NC1CCCCCCC1,inconclusive: -44.3%
18,CNc1ccc(NC(C)=O)cc1[N+](=O)[O-],inconclusive: -34.4%
19,O=C(CCc1nc(-c2ccccc2)c(-c2ccccc2)o1)OCc1ccc(Cl)cc1,inconclusive: -44.8%
20,Cc1ccc(N2C(=O)c3ccc(C(=O)Nc4cccnc4)cc3C2=O)c(C)c1,inconclusive: -30.8%
21,N#Cc1c(-c2ccco2)nc(SCc2ccc(F)cc2)[nH]c1=O,inconclusive: -31.3%
22,COCCNC(=O)c1c(CSc2ccccc2)noc1C(=O)NCc1ccccc1,inactive: 10.2%

row,SMILES,"max response, negative = inhibition"
1,CN(CC(=O)Nc1ccccc1Cl)C(=O)COC(=O)c1cc([N+](=O)[O-])ccc1N1CCOCC1,inconclusive: -31.5%
2,O=C(O)CC1S/C(=N/N=C/C=C/c2ccccc2[N+](=O)[O-])NC1=O (stereo not drawn),inconclusive: -48.2%
3,CCOC(=O)/C=C1\CN(Cc2cc(OC)c(OC)c(OC)c2)S(=O)(=O)c2ccc(C(F)(F)F)cc21,inactive: 0%
4,Cc1cc(N/N=C/c2ccccc2O)nc(-c2ccccc2O)n1,active: -131%
5,Cc1c(Cl)cccc1Nc1n[nH]c(=S)s1,inconclusive: -36.2%
6,Cc1cc(NC(=O)CSCC(=O)Nc2ccccc2Oc2ccccc2)no1,inactive: 7.19%
7,Cn1cc(C(CO)Cc2ccccc2)c2ccccc21 (stereo not drawn),inconclusive: -34.3%
8,O=C(CSc1nc2nn(-c3ccccc3)c(=O)c-2c2n1CCCCC2)Nc1ccccc1[N+](=O)[O-],inactive: 3.95%
9,CCCCCCCCNCCS(=O)(=O)NC1CCCCC1,active: -90.9%
10,CC(C)=CCN1CCN(Cc2cc3ccccc3[nH]2)CC1CCO (stereo not drawn),inconclusive: -36.7%
11,CCc1cccc(Nc2c([N+](=O)[O-])cc(C(=O)N3CC(=O)Nc4ccccc43)cc2[N+](=O)[O-])c1,inconclusive: -33.6%
12,C=CCNCCOCCSc1ccc(Cl)cc1,inconclusive: -49.2%
13,Cc1cc(NCc2ccccc2)nc2ccccc12,active: -57.3%
14,CCCN1CCC(=O)N([C@H](CSc2ccc(OC)cc2)CC(C)C)CC1,inconclusive: -35.3%
15,COc1cc([N+](=O)[O-])ccc1NC(=O)Nc1nc2c(s1)CCCC2,inactive: -6.68%
16,Cn1cnc([N+](=O)[O-])c1S(=O)(=O)Oc1ccc(Cl)cc1,active: -89.5%
17,CC1(C)CC(=O)C=C(Nc2ccc3c(c2)OCCO3)C1,inconclusive: -48.2%
18,Cc1c(NC(=O)c2ccc3c(c2)C(=O)N(CC2CCCO2)C3=O)cccc1C(=O)O (stereo not drawn),inactive: 14.6%
19,COc1ccc(N(CCC#N)S(=O)(=O)c2ccc(Cl)cc2)cc1,inconclusive: -46.5%
20,COc1ccc(CCC(=O)NNC(=O)c2ccccn2)cc1OC,inconclusive: -49.2%
21,OCCC1CN(Cc2ccc3nonc3c2)CCN1Cc1ccsc1 (stereo not drawn),active: -52.2%
22,COc1ccc([C@@H]2[C@@H](C)N(c3ccccc3)c3ccccc3C(=O)N2Cc2ccccc2)cc1,inconclusive: -30.6%

row,SMILES,"max response, negative = inhibition"
1,COc1ccccc1OCCCCN1CCN(c2ccccc2OC)CC1,active: -80.5%
2,Cc1ccc(-n2c(SCC(=O)OC(C)C)nnc2-c2ccncc2)cc1,inconclusive: -36.5%
3,COc1cc(=O)[nH]c(SC(C)C(=O)Nc2ccc3ccccc3c2)n1 (stereo not drawn),inconclusive: -33.7%
4,CC1CN(CCOCCSc2ccc(Cl)cc2)CC(C)O1 (stereo not drawn),active: -64.1%
5,c1ccc2c(NCCc3c[nH]c4ccccc34)c3ccccc3nc2c1,inconclusive: -43.2%
6,NS(=O)(=O)OCC1CCCCC1,inconclusive: -34.2%
7,O=C(NN=C(c1ccccc1)c1ccccc1)C(CCl)C1CCCCC1 (stereo not drawn),active: -50.5%
8,c1ccc(CCc2nc3ccccc3[nH]2)cc1,inactive: -23.9%
9,Cc1occc1-c1nnc(SCC(=O)N2CCc3ccccc32)o1,inconclusive: -39.5%
10,Cn1cccc1/C=N/n1c(-c2ccccc2)n[nH]c1=S,active: -98%
11,CCOC(=O)c1c(NC(=O)CSc2nc3ccc(C)cc3[nH]2)sc2c1CC(C)(C)NC2(C)C,inconclusive: -30.7%
12,CCn1c(CC(=O)Nc2ccc(C)c(Cl)c2)nnc1SCc1ccc(Cl)c(Cl)c1,inconclusive: -38.2%
13,O=C(Oc1cccc2cccnc12)c1cccc([N+](=O)[O-])c1,inconclusive: -38%
14,Oc1ccc2ccccc2c1C=Nc1ccccc1-c1nc2ccccc2[nH]1,inconclusive: -30.3%
15,CCNc1c(N)c(=O)oc2ccccc12,inconclusive: -30.2%
16,Cc1nc2ccccc2nc1OCC(=O)NCc1ccc2c(c1)OCO2,active: -64.8%
17,O=C(NCCc1ccccc1)c1ccc(NS(=O)(=O)c2ccc3[nH]c(=O)[nH]c3c2)cc1,inconclusive: -35.5%
18,Cc1ccc(S(=O)(=O)Cn2nnnc2C(C(C)C)N2CCN(C(=O)c3ccco3)CC2)cc1 (stereo not drawn),active: -56.3%
19,NC(=O)C1=C[C@@H](c2ccc(Br)cc2)C[C@@H](OCCCCO)O1,inconclusive: -30.9%
20,CC12CC(c3ccccc3O1)N(C(=O)c1ccco1)C(=S)N2c1ccc(F)cc1 (stereo not drawn),inactive: -18.5%
21,O=C(CCc1ccccc1)NC1CCS(=O)(=O)C1 (stereo not drawn),inconclusive: -33.4%
22,CCc1cccc(CC)c1NC(=S)NCCc1c(C)[nH]c2ccc(C)cc12,inconclusive: -42.1%

row,SMILES,"max response, negative = inhibition"
1,CS(=O)(=O)N1CCN(C(=S)NCc2ccc(Cl)cc2)CC1,inactive: -4.91%
2,CCOC(=O)C1CCCN(Cc2c(F)cccc2Cl)C1 (stereo not drawn),inconclusive: -39%
3,CCOc1ccc(S(=O)(=O)N2CCC(C(=O)NC3CCCCC3)CC2)cc1,inconclusive: -33.7%
4,COCc1ccc(O)c2ncccc12,active: -78.4%
5,Nc1nc(Sc2ccc([N+](=O)[O-])c3nonc23)c2[nH]cnc2n1,active: -59.8%
6,Cc1ccc2c(C)c(C(=O)N3CCN(Cc4ccc5c(c4)OCO5)CC3)oc2c1C,inconclusive: -32.1%
7,CC(C(=O)NCCC1=CCCCC1)c1ccc([N+](=O)[O-])cc1 (stereo not drawn),inconclusive: -41.2%
8,O=C1/C(=C\c2cc(Br)cc(Br)c2O)SC(=S)N1Cc1ccccc1,inconclusive: -39.9%
9,CN(C)CCN(C(=O)c1cccc(Cl)c1)c1nc2c(Cl)cccc2s1,inconclusive: -30.9%
10,CCCc1ccc(S(=O)(=O)N2CCN(Cc3ccco3)CC2)cc1,inconclusive: -33.5%
11,CCOC(=O)c1c(C)oc2c(CN3CCN(C)CC3)c(Br)c(OC)c(O)c12,inconclusive: -33.8%
12,COc1cccc(-c2nnc(NC(C)=O)o2)c1,inconclusive: -37.8%
13,CC(=O)c1ccc(-n2c(=O)[nH]c(=O)c3c(N)c(C(=O)c4ccc(Cl)cc4)sc32)cc1,inconclusive: -34.3%
14,COc1ccc2ccccc2c1/C=N/NC(=O)c1cccc(C)c1,inconclusive: -31.2%
15,CC(=O)NC1(c2nnnn2CCOC(=O)Nc2ccc(Cl)cc2)CCCCC1,inconclusive: -40%
16,CN(c1ccccc1)c1ccc(/C=C/[N+](=O)[O-])cc1,inactive: -10.2%
17,COc1ccc(N2CCN(C(=O)CSc3nnc4n3C(C)(C)Cc3ccccc3-4)CC2)cc1,inactive: 43.7%
18,O=C(c1ccc(F)cc1)N1CCOC(c2nc(-c3ccc(F)cc3)no2)C1 (stereo not drawn),inactive: 35.3%
19,O=C1C=CC(=O)N1c1ccc2c(c1)C(NC(=O)C(F)(F)F)c1ccccc1-2 (stereo not drawn),active: -61.7%
20,C/C(=N\NC(=O)c1c(Br)c(C)nn1C)c1ccc(NC(=O)C(C)Oc2ccc(Cl)cc2C)cc1 (stereo not drawn),inactive: -2.13%
21,Cc1ccc(S(=O)(=O)N2CCC(=O)N(CCOC(=O)Nc3ccc(F)cc3)CC2)cc1,inconclusive: -34.4%
22,CN(C)c1ccc(/C=N/N=C2/NC(=O)/C(=C/c3ccc([N+](=O)[O-])cc3)S2)cc1,inconclusive: -46.2%

# An excerpt of these results, with tabs:
row	SMILES	max response, negative = inhibition
17	COc1ccc(N2CCN(C(=O)CSc3nnc4n3C(C)(C)Cc3ccccc3-4)CC2)cc1	inactive: 43.7%
18	O=C(c1ccc(F)cc1)N1CCOC(c2nc(-c3ccc(F)cc3)no2)C1 (stereo not drawn)	inactive: 35.3%
19	O=C1C=CC(=O)N1c1ccc2c(c1)C(NC(=O)C(F)(F)F)c1ccccc1-2 (stereo not drawn)	active: -61.7%
20	C/C(=N\NC(=O)c1c(Br)c(C)nn1C)c1ccc(NC(=O)C(C)Oc2ccc(Cl)cc2C)cc1 (stereo not drawn)	inactive: -2.13%

# Some of the entries above, set out differently:
row | SMILES | max response, negative = inhibition
18 | O=C(c1ccc(F)cc1)N1CCOC(c2nc(-c3ccc(F)cc3)no2)C1 (stereo not drawn) | inactive: 35.3%
19 | O=C1C=CC(=O)N1c1ccc2c(c1)C(NC(=O)C(F)(F)F)c1ccccc1-2 (stereo not drawn) | active: -61.7%
